# Data source: PubChem BioAssay AID504791 (Drosophila RNAi Screening Center, 2011)
# Purpose: 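Factors in Argonaute-based small RNA production and activity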 (primary screen)
# Cells: Drosophila S2-derived reporter cells
# Knock-down reagent: long dsRNA against Drosophila genes, about 150-250 ng dsRNA per well (siRNA assay); about 80-120 ng (miRNA assay)
# Duration: about 5 days (siRNA assay); about 4 days (miRNA assay)
# Challenge: copper sulfate induction of reporters: 25 µM (siRNA assay); 200 mM stated (miRNA assay), 1-2 days before reading
# Measured: 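Dual luciferase assay: Renilla to firefly signal ratio in each well, scaled to the mean ratio of its plate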
# Hit rule: 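a well was a first-pass pick when its plate-scaled ratio rose above 1.5 (siRNA assay) or 1.6 (miRNA assay), or dropped below 0.6; a gene counted only if two separate dsRNAs agreed on retest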
# The screen tested about 23,000 reagents; shown is an unselected part of those with a known target gene and a result. In the full data, 199 (0.86%) were called active. 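Plate-scaled ratios behind the calls are not deposited; printed light signals are raw; many rows marked increased or decreased are still called inactive.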 Unmarked entries are inactive. The numbers tell different reagents against one gene apart. Names joined by + are all predicted targets of the reagent. No sequences are given here. Not given: the direction of the score.
target gene,dsRNA no.,stable siRNA reporter change,miRNA reporter change,"stable assay Renilla, run 1 (luminescence)","stable assay firefly, run 1 (luminescence)"
Neb-cGP,1,,,5359,5.20e5
CG15818,1,,,35409,4.69e5
CG14717,1,,,6815,3.63e5
CG5849,1,,,8044,3.72e5
LManI,1,,,6646,3.57e5
hiw,1,,,4479,3.14e5
hiw,2,,,3864,2.61e5
CG40485,1,,,5216,3.29e5
CG15186,1,,,6864,3.83e5
CG12182,1,,,11880,4.34e5
Cyp6a17,1,,,7710,4.90e5
Mtpalpha,1,,,6535,4.60e5
Mul1,1,,,5799,3.39e5
CG5162,1,,,5900,4.49e5
oys,1,,,5715,5.50e5
oys,2,,,8168,3.17e5
Spn,1,,,5883,3.45e5
Spn,2,,,10214,3.28e5
Spn,3,,,5127,2.91e5
kuk,1,,,7871,3.17e5
CG32650,1,,,7099,5.99e5
Tbc1d15-17,1,,,13653,1.59e5
CG8112,1,,,6884,4.18e5
Cpr35B,1,,,6316,5.75e5
Cpr35B,2,,,3948,3.26e5
CG15561,1,,,5447,3.82e5
CG13138,1,,,8554,3.87e5
pdm3,1,,,6531,3.13e5
pdm3,2,,,5554,2.68e5
pdm3,3,,,8417,4.74e5
pdm3,4,,,4359,2.86e5
Slob,1,,,7634,5.30e5
Ccdc58,1,,,5954,2.53e5
CG31248,1,,,4123,3.99e5
CG5391,1,,,8729,4.96e5
Ugt36A1,1,,,8168,4.31e5
Proc-R,1,,,5315,2.53e5
CG3690,1,,,6083,3.44e5
CG3690,2,,,6118,4.63e5
CysRS,1,,,4599,4.44e5
Rlip,1,,,7322,3.31e5
Or85c,1,,,6240,3.54e5
CG31287,1,,,4560,3.17e5
Pus10,1,,,11200,5.90e5
CG45263,1,,,4827,3.55e5
CG45263,2,,,7210,4.09e5
CG45263,3,,,7443,5.48e5
CG45263,4,,,7487,5.12e5
CG42241 (retired record),1,,,5642,4.11e5
c12.2,1,,,6290,5.61e5
Uba1,1,,,9808,3.87e5
CCDC151,1,,,7312,3.91e5
comm,1,,,9032,5.00e5
Rab9Db + Rab9D + Rab9Fa + 1 more,1,,,4431,3.30e5
CG13130 (retired record),1,,reporter ratio raised past the hit cutoff,9354,4.30e5
CG14995,1,reporter ratio raised past the hit cutoff,,11529,2.26e5
CG14995,2,,,5748,4.06e5
CG31533,1,,,3780,2.59e5
RN-tre,1,,,4395,2.28e5
CG12194,1,,,9577,5.75e5
CG17167,1,,,5583,4.35e5
CG17167,2,,,5919,3.83e5
PK2-R2,1,,,6980,3.87e5
CG14879,1,,,6264,3.31e5
sick,1,,,6938,4.49e5
sick,2,,,6391,5.39e5
sick,3,,,5787,4.95e5
sick,4,reporter ratio lowered past the hit cutoff,reporter ratio lowered past the hit cutoff,4663,5.70e5
sick,5,,,8559,6.39e5
CG13898,1,,,5743,3.00e5
Elp6,1,,,7851,5.04e5
lncRNA:CR32730,1,,,6038,6.27e5
CG13786,1,,,6666,3.91e5
Nnf1a,1,,,6115,5.05e5
CG32812,1,,,7542,3.73e5
CG5001,1,,,7462,4.06e5
Uxs,1,,,6479,3.15e5
CG15923,1,,,10644,4.40e5
Scgdelta,1,,,6067,4.60e5
Tpl94D,1,,,3507,3.62e5
dpr1,1,,,6436,5.47e5
dpr1,2,,,6415,4.39e5
PK2-R1,1,,,7366,3.62e5
